Measured values reported in paper doi:10.1101/2021.02.12.430872.
These are yes or no findings as the source states them, for the method shown. In cells and extracts the contact can be indirect. Some results given as binding are weak or reduced against the parent protein; the word gives no strength.

Protein sequences, listed by entry. Tags and fused reporters are not part of them.
UniProt O43166: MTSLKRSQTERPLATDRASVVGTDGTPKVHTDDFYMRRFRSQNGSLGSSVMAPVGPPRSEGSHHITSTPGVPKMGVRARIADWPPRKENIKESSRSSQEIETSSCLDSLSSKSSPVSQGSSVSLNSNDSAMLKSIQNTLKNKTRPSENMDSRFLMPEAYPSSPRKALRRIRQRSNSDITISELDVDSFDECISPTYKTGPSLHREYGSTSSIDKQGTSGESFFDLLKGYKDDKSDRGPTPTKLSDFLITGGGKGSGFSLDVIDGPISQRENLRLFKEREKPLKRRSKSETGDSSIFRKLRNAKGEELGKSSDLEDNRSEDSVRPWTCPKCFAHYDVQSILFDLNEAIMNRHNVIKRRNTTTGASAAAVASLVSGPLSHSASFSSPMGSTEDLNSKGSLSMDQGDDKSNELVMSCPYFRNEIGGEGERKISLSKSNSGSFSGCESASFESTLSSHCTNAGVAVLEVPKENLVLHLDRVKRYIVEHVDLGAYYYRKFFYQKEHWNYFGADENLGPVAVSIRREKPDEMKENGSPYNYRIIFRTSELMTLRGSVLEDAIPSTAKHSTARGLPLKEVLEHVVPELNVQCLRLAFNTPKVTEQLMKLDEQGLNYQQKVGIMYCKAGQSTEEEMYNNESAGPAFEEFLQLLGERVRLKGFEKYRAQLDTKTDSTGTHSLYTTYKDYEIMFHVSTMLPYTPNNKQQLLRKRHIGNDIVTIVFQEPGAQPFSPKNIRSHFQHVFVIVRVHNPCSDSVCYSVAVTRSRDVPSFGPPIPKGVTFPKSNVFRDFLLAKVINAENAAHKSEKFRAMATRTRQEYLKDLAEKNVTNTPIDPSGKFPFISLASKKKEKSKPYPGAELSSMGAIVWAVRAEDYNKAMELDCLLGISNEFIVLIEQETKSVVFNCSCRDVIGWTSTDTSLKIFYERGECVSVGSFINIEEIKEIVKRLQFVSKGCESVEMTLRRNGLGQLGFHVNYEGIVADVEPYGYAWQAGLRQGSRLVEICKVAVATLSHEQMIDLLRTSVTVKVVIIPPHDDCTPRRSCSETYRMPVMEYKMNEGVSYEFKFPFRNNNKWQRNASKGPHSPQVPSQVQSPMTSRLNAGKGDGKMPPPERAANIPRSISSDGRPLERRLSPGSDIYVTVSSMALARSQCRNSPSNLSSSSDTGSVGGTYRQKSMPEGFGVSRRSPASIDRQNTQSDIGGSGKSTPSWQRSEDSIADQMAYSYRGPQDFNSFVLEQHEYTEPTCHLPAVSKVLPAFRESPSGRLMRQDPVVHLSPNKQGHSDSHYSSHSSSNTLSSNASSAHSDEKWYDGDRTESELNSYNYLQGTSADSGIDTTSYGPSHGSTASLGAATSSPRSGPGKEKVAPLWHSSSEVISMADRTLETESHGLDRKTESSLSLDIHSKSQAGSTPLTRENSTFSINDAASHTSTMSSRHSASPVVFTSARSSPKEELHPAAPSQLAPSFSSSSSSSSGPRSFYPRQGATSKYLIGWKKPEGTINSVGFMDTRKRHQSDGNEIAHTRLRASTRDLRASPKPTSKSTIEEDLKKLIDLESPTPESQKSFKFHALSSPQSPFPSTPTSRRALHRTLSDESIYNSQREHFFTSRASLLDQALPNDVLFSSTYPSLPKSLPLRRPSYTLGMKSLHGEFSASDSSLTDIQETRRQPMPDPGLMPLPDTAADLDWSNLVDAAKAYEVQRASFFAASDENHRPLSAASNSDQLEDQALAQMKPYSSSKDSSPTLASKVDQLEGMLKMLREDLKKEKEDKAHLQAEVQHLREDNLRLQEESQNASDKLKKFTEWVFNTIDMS
UniProt Q7TPR4: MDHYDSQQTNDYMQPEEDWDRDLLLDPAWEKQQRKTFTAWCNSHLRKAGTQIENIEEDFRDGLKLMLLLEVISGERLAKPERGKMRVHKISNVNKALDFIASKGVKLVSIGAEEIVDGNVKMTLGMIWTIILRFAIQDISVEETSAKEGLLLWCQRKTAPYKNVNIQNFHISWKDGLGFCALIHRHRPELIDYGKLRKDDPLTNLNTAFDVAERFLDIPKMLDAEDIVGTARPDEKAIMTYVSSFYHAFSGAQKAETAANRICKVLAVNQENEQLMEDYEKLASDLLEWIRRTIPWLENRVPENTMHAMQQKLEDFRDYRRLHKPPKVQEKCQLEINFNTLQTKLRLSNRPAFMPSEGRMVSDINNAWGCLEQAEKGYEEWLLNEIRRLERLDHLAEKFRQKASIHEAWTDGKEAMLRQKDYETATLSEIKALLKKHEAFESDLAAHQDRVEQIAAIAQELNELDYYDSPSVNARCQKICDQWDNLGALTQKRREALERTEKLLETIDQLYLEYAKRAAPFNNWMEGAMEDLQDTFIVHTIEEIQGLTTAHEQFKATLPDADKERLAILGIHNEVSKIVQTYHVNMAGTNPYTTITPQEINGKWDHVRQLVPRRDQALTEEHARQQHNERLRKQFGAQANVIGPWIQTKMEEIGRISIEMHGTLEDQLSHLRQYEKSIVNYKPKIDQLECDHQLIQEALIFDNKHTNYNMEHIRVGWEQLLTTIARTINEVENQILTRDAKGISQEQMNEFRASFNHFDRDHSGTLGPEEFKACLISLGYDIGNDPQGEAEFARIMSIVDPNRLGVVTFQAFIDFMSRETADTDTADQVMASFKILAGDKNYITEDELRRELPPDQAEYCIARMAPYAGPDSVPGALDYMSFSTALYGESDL
UniProt Q96SB3: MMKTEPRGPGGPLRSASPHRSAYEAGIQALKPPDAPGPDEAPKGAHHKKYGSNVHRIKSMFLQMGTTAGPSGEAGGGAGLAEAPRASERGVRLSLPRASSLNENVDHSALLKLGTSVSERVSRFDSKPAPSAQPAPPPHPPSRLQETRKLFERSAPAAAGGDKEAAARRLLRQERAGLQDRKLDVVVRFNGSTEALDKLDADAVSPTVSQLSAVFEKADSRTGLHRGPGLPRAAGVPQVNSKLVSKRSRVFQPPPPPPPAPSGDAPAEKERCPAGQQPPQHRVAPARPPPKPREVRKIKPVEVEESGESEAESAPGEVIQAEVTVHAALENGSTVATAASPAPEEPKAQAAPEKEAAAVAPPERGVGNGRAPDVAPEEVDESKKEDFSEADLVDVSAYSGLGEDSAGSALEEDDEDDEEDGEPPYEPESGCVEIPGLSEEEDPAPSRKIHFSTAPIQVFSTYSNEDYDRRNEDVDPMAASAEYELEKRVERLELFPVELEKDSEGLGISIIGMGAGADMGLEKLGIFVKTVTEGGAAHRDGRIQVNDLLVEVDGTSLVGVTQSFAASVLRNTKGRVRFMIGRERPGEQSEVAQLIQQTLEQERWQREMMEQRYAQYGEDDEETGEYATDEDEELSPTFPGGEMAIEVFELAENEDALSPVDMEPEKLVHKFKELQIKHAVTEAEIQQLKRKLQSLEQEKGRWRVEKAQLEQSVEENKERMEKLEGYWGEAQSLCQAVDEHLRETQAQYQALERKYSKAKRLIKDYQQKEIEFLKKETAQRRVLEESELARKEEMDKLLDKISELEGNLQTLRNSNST
UniProt Q6R891: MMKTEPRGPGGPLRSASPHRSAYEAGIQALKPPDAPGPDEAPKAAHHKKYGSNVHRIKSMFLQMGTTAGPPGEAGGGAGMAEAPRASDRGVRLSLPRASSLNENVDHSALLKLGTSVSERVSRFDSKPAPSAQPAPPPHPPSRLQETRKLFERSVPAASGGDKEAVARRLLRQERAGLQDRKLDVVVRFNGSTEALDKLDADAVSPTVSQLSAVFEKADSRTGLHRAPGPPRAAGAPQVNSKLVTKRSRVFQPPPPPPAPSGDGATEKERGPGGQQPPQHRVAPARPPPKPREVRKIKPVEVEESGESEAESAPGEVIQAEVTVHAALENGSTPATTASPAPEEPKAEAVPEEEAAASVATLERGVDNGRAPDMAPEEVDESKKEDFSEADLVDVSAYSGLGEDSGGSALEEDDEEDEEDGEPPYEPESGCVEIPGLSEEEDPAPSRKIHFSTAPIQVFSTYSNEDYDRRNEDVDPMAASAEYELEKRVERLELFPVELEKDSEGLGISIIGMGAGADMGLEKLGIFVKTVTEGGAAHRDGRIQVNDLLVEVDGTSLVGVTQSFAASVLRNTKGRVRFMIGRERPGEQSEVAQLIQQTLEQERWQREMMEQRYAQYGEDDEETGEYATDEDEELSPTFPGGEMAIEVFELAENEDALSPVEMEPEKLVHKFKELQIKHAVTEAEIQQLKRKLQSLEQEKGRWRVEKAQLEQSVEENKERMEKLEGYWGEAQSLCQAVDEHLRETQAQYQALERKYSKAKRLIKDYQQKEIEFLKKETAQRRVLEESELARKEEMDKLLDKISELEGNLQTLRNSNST
UniProt A2AHG0: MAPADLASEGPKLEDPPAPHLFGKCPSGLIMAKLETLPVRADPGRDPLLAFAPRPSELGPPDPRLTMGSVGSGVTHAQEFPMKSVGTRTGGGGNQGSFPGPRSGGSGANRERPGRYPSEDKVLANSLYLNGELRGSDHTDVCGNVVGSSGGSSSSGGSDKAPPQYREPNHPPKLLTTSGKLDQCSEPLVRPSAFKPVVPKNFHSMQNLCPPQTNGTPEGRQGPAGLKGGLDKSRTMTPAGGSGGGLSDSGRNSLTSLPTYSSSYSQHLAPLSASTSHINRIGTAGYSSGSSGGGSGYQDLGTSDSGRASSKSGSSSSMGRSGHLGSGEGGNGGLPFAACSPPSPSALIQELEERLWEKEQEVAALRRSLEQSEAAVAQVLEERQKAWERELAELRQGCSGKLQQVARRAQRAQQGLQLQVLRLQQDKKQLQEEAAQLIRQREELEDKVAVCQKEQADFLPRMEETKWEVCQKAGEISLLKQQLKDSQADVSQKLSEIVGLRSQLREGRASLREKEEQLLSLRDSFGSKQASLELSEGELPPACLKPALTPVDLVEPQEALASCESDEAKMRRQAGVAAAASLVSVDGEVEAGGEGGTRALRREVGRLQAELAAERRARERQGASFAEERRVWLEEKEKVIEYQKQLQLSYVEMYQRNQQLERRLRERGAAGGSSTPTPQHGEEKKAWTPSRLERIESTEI

T1: Signal-induced proliferation-associated 1 (SIPA1)-like 1 (SIPA1L1) (mouse (endogenous in brain)), Q8C0T5
T1 chain: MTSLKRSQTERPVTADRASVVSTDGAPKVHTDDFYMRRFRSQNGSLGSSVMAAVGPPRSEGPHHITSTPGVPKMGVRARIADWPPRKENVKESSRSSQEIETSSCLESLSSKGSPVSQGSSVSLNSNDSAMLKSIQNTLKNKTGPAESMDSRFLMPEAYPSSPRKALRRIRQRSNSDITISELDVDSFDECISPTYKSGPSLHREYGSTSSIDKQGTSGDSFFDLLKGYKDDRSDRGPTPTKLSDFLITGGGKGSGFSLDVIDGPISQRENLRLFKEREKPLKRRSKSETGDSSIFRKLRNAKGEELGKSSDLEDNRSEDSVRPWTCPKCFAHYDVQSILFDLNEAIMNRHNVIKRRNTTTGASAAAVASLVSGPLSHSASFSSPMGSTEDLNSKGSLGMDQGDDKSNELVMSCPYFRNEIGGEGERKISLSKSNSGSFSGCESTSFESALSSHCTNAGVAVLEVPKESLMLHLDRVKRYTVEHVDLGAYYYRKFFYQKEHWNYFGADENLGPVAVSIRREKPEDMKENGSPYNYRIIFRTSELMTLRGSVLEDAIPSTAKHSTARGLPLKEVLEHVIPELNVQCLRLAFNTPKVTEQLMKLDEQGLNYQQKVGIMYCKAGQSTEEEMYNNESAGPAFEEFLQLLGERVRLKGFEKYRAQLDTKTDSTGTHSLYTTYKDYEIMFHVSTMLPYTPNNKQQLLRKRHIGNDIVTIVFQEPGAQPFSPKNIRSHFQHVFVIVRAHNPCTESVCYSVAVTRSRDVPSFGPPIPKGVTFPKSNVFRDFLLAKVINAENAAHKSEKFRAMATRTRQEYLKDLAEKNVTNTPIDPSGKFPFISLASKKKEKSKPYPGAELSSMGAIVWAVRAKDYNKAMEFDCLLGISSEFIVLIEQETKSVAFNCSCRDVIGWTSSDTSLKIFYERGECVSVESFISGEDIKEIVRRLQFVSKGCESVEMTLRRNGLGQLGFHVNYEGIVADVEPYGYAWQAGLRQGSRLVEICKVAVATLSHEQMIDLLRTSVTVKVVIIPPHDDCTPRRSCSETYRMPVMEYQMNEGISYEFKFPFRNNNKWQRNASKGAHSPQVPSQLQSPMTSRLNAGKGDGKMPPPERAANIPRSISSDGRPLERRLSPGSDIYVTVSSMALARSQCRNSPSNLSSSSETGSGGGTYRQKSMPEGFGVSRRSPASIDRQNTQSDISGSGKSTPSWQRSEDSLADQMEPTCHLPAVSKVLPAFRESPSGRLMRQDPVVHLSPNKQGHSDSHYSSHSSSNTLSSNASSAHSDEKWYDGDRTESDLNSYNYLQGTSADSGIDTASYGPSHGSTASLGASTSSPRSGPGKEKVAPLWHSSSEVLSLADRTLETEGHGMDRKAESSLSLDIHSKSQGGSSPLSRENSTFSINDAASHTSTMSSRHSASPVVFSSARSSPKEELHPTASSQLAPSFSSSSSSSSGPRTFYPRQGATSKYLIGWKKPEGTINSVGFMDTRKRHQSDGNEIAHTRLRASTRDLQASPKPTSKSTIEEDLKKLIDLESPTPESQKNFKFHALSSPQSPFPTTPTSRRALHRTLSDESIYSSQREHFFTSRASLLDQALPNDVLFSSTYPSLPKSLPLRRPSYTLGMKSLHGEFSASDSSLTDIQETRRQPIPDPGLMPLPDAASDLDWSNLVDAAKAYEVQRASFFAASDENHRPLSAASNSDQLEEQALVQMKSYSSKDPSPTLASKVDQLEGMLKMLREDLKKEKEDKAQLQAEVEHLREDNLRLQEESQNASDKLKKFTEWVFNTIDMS

B1: LZTS1/PSD-Zip70 (protein, UniProt P60853 1-599)
chain: MGSVSSLISGHSFHSKHCRASQYKLRKSSHLKKLNRYSDGLLRFGFSQDSGRGKSSSKMGKSEDFFYIKVSQKARGSHRPDYTALSSGDIGGQTGVDFDPATPPKLMPFSNQLEMSSDKGAVRPTAFKPVLPRSGAILHSSPESTSHQLHPMPPDKPKEQELKPGLCSGALSDSGRNSMSSLPTHSTTSSYQLDPLVTPVGPTSRFGGSAHNITQGIILQDSNMMSLKALSFSDGGSKLAHPGKADKGASCVRSPLSTDECTIQELEQKLLQRETALQKLQRSFDEKEFASGQTFEERPRRTRDELECLEPKSKLKPPSQKSQRTQQVLQLQVLQLQQEKRQLRQELESLMKEQDLLETKLRSYEREKTNFAPALEETQWEVCQKSGEISLLKQQLKESQLEVNTKASEILSLKAQLKDTRGKLDGMELKTQDLESALRTKGLELEVCENELQRKKNEAELLREKVNLLEQELMELRAQAALHPAPLGPPGVGLTFSEDIPALQRELDRLRAELKEERQGHDQMSSGFQHERLVWKEEKEKVIQYQRQLQQSYLAMYQRNQRLEKALQQLARGDGPGEPFEIDLEGADIPYEDIIATEI
B2: drebrin (protein, UniProt Q9QXS6 1-706)
chain: MAGVSFSGHRLELLAAYEEVIREESAADWALYTYEDGSDDLKLAASGEGGLQELSGHFENQKVMYGFCSVKDSQAALPKYVLINWVGEDVPDARKCACASHVAKVAEFFQGVDVIVNASSVEDIDAGAIGQRLSNGLARLSSPVLHRLRLREDENAEPVGTTYQKTDAAVEMKRINREQFWEQAKKEEELRKEEERKKALDARLRFEQERMEQERQEQEERERRYREREQQIEEHRRKQQSLEAEEAKRRLKEQSIFGDQRDEEEESQMKKSESEVEEAAAIIAQRPDNPREFFRQQERVASASGGSCDAPAPAPFNHRPGRPYCPFIKASDSGPSSSSSSSSSPPRTPFPYITCHRTPNLSSSLPCSHLDSHRRMAPTPIPTRSPSDSSTASTPIAEQIERALDEVTSSQPPPPPPPPPPTQEAQETTPSLDEELSKEAKVTAAPEVWAGCAAEPPQAQEPPLLQSSPLEDSMCTESPEQAALAAPAEPAASVTSVADVHAADTIETTTATTDTTIANNVTPAAASLIDLWPGNGEEASTLQAEPRVPTPPSGAEASLAEVPLLNEAAQEPLPPVGEGCANLLNFDELPEPPATFCDPEEEVGETLAASQVLTMPSALEEVDQVLEQELEPEPHLLTNGETTQKEGTQASEGYFSQSQEEEFAQSEEPCAKVPPPVFYNKPPEIDITCWDADPVPEEEEGFEGGD
B3: SynGAP (protein, UniProt F6SEU4 1-1340)
chain: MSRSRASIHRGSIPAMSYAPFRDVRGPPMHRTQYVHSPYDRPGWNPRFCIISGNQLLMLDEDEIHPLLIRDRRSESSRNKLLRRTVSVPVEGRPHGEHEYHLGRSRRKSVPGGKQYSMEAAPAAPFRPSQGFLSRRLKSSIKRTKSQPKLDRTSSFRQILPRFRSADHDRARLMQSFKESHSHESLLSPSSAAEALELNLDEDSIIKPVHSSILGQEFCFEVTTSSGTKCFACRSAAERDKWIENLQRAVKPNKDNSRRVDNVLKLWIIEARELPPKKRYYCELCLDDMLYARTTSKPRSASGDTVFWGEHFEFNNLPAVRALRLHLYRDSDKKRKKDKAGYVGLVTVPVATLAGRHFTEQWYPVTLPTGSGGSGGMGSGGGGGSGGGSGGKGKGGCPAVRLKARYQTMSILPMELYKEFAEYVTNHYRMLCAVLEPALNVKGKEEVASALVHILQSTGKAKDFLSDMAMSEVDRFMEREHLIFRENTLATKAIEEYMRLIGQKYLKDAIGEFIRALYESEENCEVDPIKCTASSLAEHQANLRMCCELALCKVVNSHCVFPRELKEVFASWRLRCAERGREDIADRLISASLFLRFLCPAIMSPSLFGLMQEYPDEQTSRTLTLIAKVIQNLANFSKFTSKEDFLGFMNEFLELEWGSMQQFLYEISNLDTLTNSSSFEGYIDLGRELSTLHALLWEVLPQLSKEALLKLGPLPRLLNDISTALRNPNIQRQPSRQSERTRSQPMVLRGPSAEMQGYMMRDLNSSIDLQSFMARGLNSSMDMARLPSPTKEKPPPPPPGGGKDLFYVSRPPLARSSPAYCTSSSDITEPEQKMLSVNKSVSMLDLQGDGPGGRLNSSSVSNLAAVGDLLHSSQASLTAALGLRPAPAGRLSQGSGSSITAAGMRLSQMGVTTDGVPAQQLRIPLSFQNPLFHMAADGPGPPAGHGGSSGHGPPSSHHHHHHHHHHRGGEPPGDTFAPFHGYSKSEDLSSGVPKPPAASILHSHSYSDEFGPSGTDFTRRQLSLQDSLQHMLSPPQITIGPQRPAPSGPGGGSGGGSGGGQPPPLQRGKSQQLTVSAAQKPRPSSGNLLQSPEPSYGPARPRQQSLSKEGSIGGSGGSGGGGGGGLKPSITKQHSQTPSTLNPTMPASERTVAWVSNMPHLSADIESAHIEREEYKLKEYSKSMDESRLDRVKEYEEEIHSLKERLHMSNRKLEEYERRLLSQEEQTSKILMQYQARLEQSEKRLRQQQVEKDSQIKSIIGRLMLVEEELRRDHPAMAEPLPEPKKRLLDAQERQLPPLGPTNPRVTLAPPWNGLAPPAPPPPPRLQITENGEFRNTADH
B4: neuroligin-1, Q99K10 46-843 (protein)
chain: QKLDDVDPLVTTNFGKIRGIKKELNNEILGPVIQFLGVPYAAPPTGEHRFQPPEPPSPWSDIRNATQFAPVCPQNIIDGRLPEVMLPVWFTNNLDVVSSYVQDQSEDCLYLNIYVPTEDGPLTKKHTDDLGDNDGAEDEDIRDSGGPKPVMVYIHGGSYMEGTGNLYDGSVLASYGNVIVITVNYRLGVLGFLSTGDQAAKGNYGLLDLIQALRWTSENIGFFGGDPLRITVFGSGAGGSCVNLLTLSHYSEGNRWSNSTKGLFQRAIAQSGTALSSWAVSFQPAKYARILATKVGCNVSDTVELVECLQKKPYKELVDQDVQPARYHIAFGPVIDGDVIPDDPQILMEQGEFLNYDIMLGVNQGEGLKFVENIVDSDDGVSASDFDFAVSNFVDNLYGYPEGKDVLRETIKFMYTDWADRHNPETRRKTLLALFTDHQWVAPAVATADLHSNFGSPTYFYAFYHHCQTDQVPAWADAAHGDEVPYVLGIPMIGPTELFPCNFSKNDVMLSAVVMTYWTNFAKTGDPNQPVPQDTKFIHTKPNRFEEVAWTRYSQKDQLYLHIGLKPRVKEHYRANKVNLWLELVPHLHNLNDISQYTSTTTKVPSTDITLRPTRKNSTPVTSAFPTAKQDDPKQQPSPFSVDQRDYSTELSVTIAVGASLLFLNILAFAALYYKKDKRRHDVHRRCSPQRTTTNDLTHAPEEEIMSLQMKHTDLDHECESIHPHEVVLRTACPPDYTLAMRRSPDDIPLMTPNTITMIPNTIPGIQPLHTFNTFTGGQNNTLPHPHPHPHSHSTTRV

How the values were obtained:
Assay in all cases: co-IP
[1] = molecular target: Signal-induced proliferation-associated 1 (SIPA1)-like 1 (SIPA1L1) (mouse (endogenous in brain)) (UniProt Q8C0T5)
[2] = molecular target: Myc-tagged SIPA1L1 (human) (UniProt O43166)
[3] = molecular target: T1, Signal-induced proliferation-associated …; settings: remark: other sources report otherwise

Row | Molecule | binding [1] | also measured
1 | α-actinin-1 (from UniProt Q7TPR4 1-892) | binds | –
2 | FLAG-tagged spinophilin (from UniProt Q96SB3 1-817) | – | binding [2]: binds
3 | spinophilin (neurabin-2/PP1R9B) (from UniProt Q6R891 1-817) | binds | –
4 | LZTS3/Pro-SAPiP1 (from UniProt A2AHG0 1-700) | binds | –
5 | B1 | binds | –
6 | B2 | binds | –
7 | B3 | no binding | –
8 | B4 | – | binding [3]: no binding
